Reference: the supplement of paper PMC7238544
Where a name gives a salt, the structure may show the parent alone. ± gives the standard deviation of the averaged measurements. The list shows a part of the results. The data scatter; read single values as rough.

These compounds were tested on hAMSC donor 1 (assay: transgenic luciferase activity (RLU/mg protein) fold change vs vehicle control (ratio); hAMSC are human adipose-derived mesenchymal stem cells given an EGFP-luciferase plasmid by lipofection; higher = more transgene expression). Settings: priming compound concentration 13 µM.

Row | Structure (SMILES) | transgenic luciferase activity
1 | COC(=O)N1CCN(C(=O)Cc2ccc(Cl)c(Cl)c2)C(CN2CCCC2)C1 (stereo not given) | 0.373 ± 0.083
2 | O=C1CC[C@@]2(O)[C@H]3Cc4ccc(O)c5c4[C@@]2(CCN3CC2CC2)[C@H]1O5 [Naltrexone hydrochloride] | 1.02 ± 0.25
3 | C=C(C)[C@@H]1[C@H]2OC(=O)[C@@H]1[C@]1(O)C[C@H]3O[C@]34C(=O)O[C@H]2[C@]14C.CC(C)(O)[C@@H]1[C@H]2OC(=O)[C@@H]1[C@]1(O)C[C@H]3O[C@]34C(=O)O[C@H]2[C@]14C [Picrotin - Picrotoxinin] | 0.578 ± 0.39
4 | C[C@]12Cc3c[nH]nc3C[C@@H]1CC[C@@H]1[C@@H]2CC[C@@]2(C)[C@H]1CC[C@]2(C)O [Stanozolol] | 0.399 ± 0.14
5 | C[N+]1(C)CCCC(OC(=O)C(O)(c2ccccc2)c2ccccc2)C1 (stereo not given) [Mepenzolate bromide] | 0.585 ± 0.023
6 | CN[C@@H]1C[C@@H](c2ccc(Cl)c(Cl)c2)c2ccccc21 [Indatraline hydrochloride] | 0.159 ± 0.13
7 | C#CCN(C)[C@H](C)Cc1ccccc1 [Selegiline hydrochloride] | 0.143 ± 0.061
8 | FC(F)(F)c1cccc(N2CCNCC2)c1 [TFMPP hydrochloride] | 1.17 ± 0.81
9 | CN(C)C(=O)Oc1ccc[n+](C)c1 [Pyridostigmine bromide] | 0.398 ± 0.13
10 | Oc1cc(Cl)ccc1Oc1ccc(Cl)cc1Cl [Triclosan] | 1.2 ± 1.1
11 | CCOC(=O)c1cncn1[C@H](C)c1ccccc1 [Etomidate] | 0.803 ± 0.48
12 | CCOC(=O)C1(c2ccccc2)CCN(CCC(C#N)(c2ccccc2)c2ccccc2)CC1 [Diphenoxylate hydrochloride] | 0.537 ± 0.11
13 | CCCCC/C=C\C/C=C\C/C=C\C/C=C\CCCC(=O)Nc1ccc(O)cc1 | 0.105 ± 0.1
14 | CCCCCCCCCOc1ccc2[nH]cc(CCN)c2c1 [5-Nonyloxytryptamine hydrochloride] | 0.604 ± 0.15
15 | O=C(O)C(Cl)Cl [Dichloroacetic acid] | 0.721 ± 0.088
16 | C[C@]12CC[C@H](O)CC1=CC[C@@H]1[C@@H]2CC[C@@]2(C)[C@H]1CC[C@]2(C)O [Methylandrostenediol] | 1.39 ± 0.031
17 | C=C(C)CN1CC[C@@]23c4c5ccc(O)c4O[C@H]2c2[nH]c4ccccc4c2C[C@]3(O)C1C5 [SDM25N hydrochloride] | 0.655 ± 0.17
18 | c1ccc2c(c1)Nc1ccccc1S2 [Phenothiazine] | 0.575 ± 0.19
19 | CN1CC[C@@H](c2ccc(F)cc2)[C@H](COc2ccc3c(c2)OCO3)C1 [N-Methylparoxetine] | 0.614 ± 0.38
20 | CN1C(=O)CN=C(c2ccccc2)c2cc(Cl)ccc21 [Diazepam] | 1.63 ± 1.9

Laid out differently: 2 of the compounds above

| Row | Structure (SMILES) | transgenic luciferase activity |
| --- | --- | --- |
| 10 | Oc1cc(Cl)ccc1Oc1ccc(Cl)cc1Cl [Triclosan] | 1.2 ± 1.1 |
| 11 | CCOC(=O)c1cncn1[C@H](C)c1ccccc1 [Etomidate] | 0.803 ± 0.48 |
